The values that follow are results of earlier work, collected in patent US20070286806A1, “Methods and Compositions for Modulating a Steroid Receptor” (Mount Sinai Hospital, priority 2004, published 2007).

For at least one entry, the source does not settle the construct or the ends of the probe.

This data set has as its system PSF C-terminally truncated form (no RRMs). As to the kind of experiment: binding assay. The following applies: CITED Urban et al 2002 (ref 43); cited from earlier work.

Take “CTGAGTC (double strand) [PSF site in P450 side chain cleavage enzyme promoter]”: the binding result is given as “binds”.
